In publication PMC9273934:

Molecular target: T1, scavenger receptor class B type I on CHO cells (human) (UniProt Q8WTV0)
T1 sequence: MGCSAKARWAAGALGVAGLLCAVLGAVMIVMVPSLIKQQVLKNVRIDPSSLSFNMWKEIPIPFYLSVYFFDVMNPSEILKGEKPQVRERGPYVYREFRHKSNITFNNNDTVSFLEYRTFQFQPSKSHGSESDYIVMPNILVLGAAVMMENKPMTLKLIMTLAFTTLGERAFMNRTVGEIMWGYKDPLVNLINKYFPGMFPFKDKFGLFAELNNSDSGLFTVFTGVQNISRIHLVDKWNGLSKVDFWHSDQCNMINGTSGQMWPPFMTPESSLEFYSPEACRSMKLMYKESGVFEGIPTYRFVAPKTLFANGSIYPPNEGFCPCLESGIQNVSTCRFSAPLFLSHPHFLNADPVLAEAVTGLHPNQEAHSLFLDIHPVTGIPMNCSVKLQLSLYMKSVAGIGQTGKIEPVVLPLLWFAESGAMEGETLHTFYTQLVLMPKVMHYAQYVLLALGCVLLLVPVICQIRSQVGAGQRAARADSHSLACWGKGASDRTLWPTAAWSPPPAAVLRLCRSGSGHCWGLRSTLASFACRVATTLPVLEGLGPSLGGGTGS
Assay: flow cytometry on cells; 10 ug Fc-E1E2 with CHO cells stably expressing CD81 or SR-BI (or parental CHO), 2 h at room temperature; PE anti-human IgG Fc; only the binder purified

Substance | binding
Fc-E1E2 from H77 (GT1a), recombinant full-length E1E2 heterodimer (hepatitis C virus, strain H77 (GT1a)) (complex) | binds
Fc-E1E2 from HK6a (GT6a), recombinant full-length E1E2 heterodimer (hepatitis C virus, strain HK6a (GT6a)) (complex) | binds
Fc-E1E2 from J6 (GT2a), recombinant full-length E1E2 heterodimer (hepatitis C virus, strain J6 (GT2a)) (complex) | binds
Fc-E1E2 from S52 (GT3a), recombinant full-length E1E2 heterodimer (hepatitis C virus, strain S52 (GT3a)) (complex) | binds

No constants are given. Whether binding was seen depends on the method and setting. Binding can be weak; no strength is given.
